Measured values from PubChem BioAssay AID2685 (National Center for Advancing Translational Sciences (NCATS), 2010).
Where “and” joins values, the source holds several entries; their conditions need not be identical. Identical values can stand only once. Some of the results follow. Further columns of the screen follow, without active or inactive calls. The list favours compounds with an active or inconclusive main result. The note in brackets gives the kind of curve behind each potency; many fits are weak.

Assay: qHTS Assay for Lipid Storage Modulators in Drosophila S3 Cells;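 for cell number change: cells counted by Cell Tracker Red CMTPX staining in the red channel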
Details: BODIPY lipid droplet fluorescence, 18-24 h; for cell number change: measured here: cell count max response, cells fed with added oleic acid
How it was run: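 Drosophila S3 cells loaded with oleic acid (400 uM, as added) and compounds at several concentrations; lipid droplets imaged by 488-nm laser-scanning cytometry, 500–530 nm intensity and object ratio to cell channel. Percent activity normalized to 20 uM Triacsin C.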

[1] = measured here: cell number channel AC50, cells fed with added oleic acid
[2] = measured here: lipid fluorescence (Fed channel) AC50, cells fed with added oleic acid

| SMILES | cell number change | AC50 [1] | AC50 [2] |
| --- | --- | --- | --- |
| Cc1ccc(CN2CCC(c3cc(-c4cccs4)n[nH]3)CC2)cc1 | 52.6% | 5.8 µM [falling, single point] | 3.66 µM [falling, partial curve] |
| CCOC(=O)N1CCN(C(=O)C2CCN(S(=O)(=O)c3ccc(OCC)cc3)CC2)CC1 | 9.9% |  |  |
| CCOc1cc(/C=C2\SC(=NC)N(C)C2=O)cc(Cl)c1OC(C)=O | 26% |  | 29.1 µM [rising, single point] |
| COc1ccc(S(=O)(=O)Cc2ccc(C(=O)N3CCN(c4ccccn4)CC3)o2)cc1 |  |  | 29.1 µM [rising, single point] |
| CCCN1CCC2(CC1)C(C#N)=C(N)Oc1c2sc2nc(C)cc(C)c12 | 32.9% | 16.4 µM [rising, partial curve] | 23.1 µM [rising, single point] |
| COc1ccc(-c2ccc(-c3noc(-c4ccccc4C)n3)c(OC)n2)cc1 | 13.6% |  | 2.06 µM [rising, partial curve] |
| Cc1ccc(NC(=O)Cn2cccc2)cc1C | 18.7% |  | 23.1 µM [rising, single point] |
| O=C(N/N=C/c1ccc(OCc2ccccc2)cc1)c1ccncc1 | 1.29% |  | 3.26 µM [rising, single point] |
| COc1ccc(NC(=O)CN2C(=O)NC(C)(c3ccc(C)cc3)C2=O)cn1 (centres undefined) | -3.88% |  | 10.3 µM [falling, partial curve] |
| COc1ccccc1N(CC(=O)N/N=C/c1ccc(OCC(=O)NCc2ccco2)cc1)S(=O)(=O)c1ccc(C)cc1 | 29.4% |  | 3.66 µM [rising, full curve] |
| O=C(N/N=C/c1ccco1)c1cccc(NC(=O)c2ccccc2Cl)c1 | 11.7% |  | 4.11 µM [rising, partial curve, poor fit] |
| CCOc1ccc2nc(NC(=O)c3cnc(C)cn3)sc2c1 | 30.7% | 2.06 µM [rising, partial curve] | 6.51 µM [rising, partial curve] |
| COc1ccc(S(=O)(=O)NCc2ccccc2)cc1 | 14% |  | 29.1 µM [falling, single point] |
| CC(=O)c1cc(NC(=O)c2cccc(C(F)(F)F)c2)c(=O)oc1C | -73.6% | 32.6 µM [falling, single point] | 7.31 µM [falling, partial curve] |
| CCOCCCNC(=O)c1ccc(NC(C)=O)cc1 | 21.7% |  |  |
| Cc1ccc(NC(=O)CSCC(=O)N(C)Cc2ccc(Cl)c(Cl)c2)cc1 | -52.7% | 0.00517 µM [falling, full curve, poor fit] | 0.00517 µM [falling, full curve, poor fit] |
| COc1cc(/C=N/n2c(COc3ccccc3)n[nH]c2=S)cc(Br)c1O | 10.3% |  | 2.59 µM [rising, partial curve] |
| CCCCn1c(N)c(N(CC(C)C)C(=O)c2c(-c3ccccc3)noc2C)c(=O)[nH]c1=O | 16.5% |  | 0.164 µM [falling, full curve, poor fit] |
| Cc1ccc(C(=O)Nc2nc3nc(-c4ccccc4)cc(=O)n3[nH]2)cc1 | 10.1% |  | 2.06 µM [falling, partial curve, poor fit] |
| CCN(CC)c1ccc(/C=N/N=C(c2ccccc2)c2ccccc2)c(O)c1 | -17.2% |  | 2.31 µM [rising, partial curve] |

| SMILES | cell number change | AC50 [1] | AC50 [2] |
| --- | --- | --- | --- |
| O=C1c2ccccc2C(=O)N1CCCCSc1nnc(-c2ccc(OC(F)F)cc2)o1 | -4.1% |  | 6.51 µM [rising, partial curve] |
| O=C(NCCCN1CCN(c2ccccc2F)CC1)Nc1ccccc1[N+](=O)[O-] | -4.73% |  | 4.11 µM [falling, single point] |
| O=C(Nc1ccccc1)c1cccnc1N1CCCC1 | 14.5% |  | 0.411 µM [falling, partial curve, poor fit] |
| Cc1nc2oc3ccc(F)cc3c(=O)c2cc1C(=O)NC(C)(C)C |  | 2.91 µM [falling, single point] |  |
| Cn1c(C(=O)N2CCC(C(N)=O)CC2)cc2c(=O)n(C)c3ccccc3c21 | -9.09% |  | 0.731 µM [rising, single point] |
| COCCN(C(=O)c1ccc(C)o1)c1c(N)n(CC(C)C)c(=O)[nH]c1=O | -49.7% | 0.92 µM [falling, full curve] | 0.92 µM [falling, full curve] |
| CCOc1cc(C(=O)Nc2ccc(S(=O)(=O)N3CCCCC3)cc2)ccc1OCC(=O)N1CCOCC1 | 45.4% | 11.6 µM [rising, single point] |  |
| Cc1nc2scc(C)n2c(=O)c1S(=O)(=O)Nc1ccc(OC(F)(F)F)cc1 | -41.2% | 23.1 µM [falling, single point] | 23.1 µM [falling, single point] |
| CCc1cccc(NC(=O)CCc2c(C)nn(-c3ccc(N4CCOCC4)nn3)c2C)c1 | -3.54% |  |  |
| COc1ccccc1C(=O)Oc1ccc(C(C)(C)C)cc1 |  | 0.13 µM [falling, full curve] | 0.164 µM [falling, full curve, poor fit] |
| N#Cc1ccc2ccn(CC(=O)NC3CCCCCC3)c2c1 | 19.6% | 0.366 µM [rising, single point] |  |
| O=C(NCC(F)(F)F)N1CCOCC1 | 4.57% |  |  |
| CC(C)CC(C(=O)NC(=O)NCc1ccccc1)N1C(=O)c2ccccc2C1=O (centres undefined) | 4.09% |  | 4.61 µM [falling, partial curve, poor fit] |
| O=C(CN1C(=O)COc2ccccc21)N1CCN(C2CCCCC2)CC1 | 12% |  | 3.66 µM [rising, partial curve] |
| COc1ccc(C(=O)N(C)C2CCCCC2)cc1OC1CCN(C(C)C)CC1 | 17.6% |  |  |
| C=CCSc1nc2ccccc2c(=O)n1Cc1ccccc1 | 60.6% | 29.1 µM [rising, single point] |  |
| O=C(O)COCC(=O)Nc1ccc(-n2nc(C(F)(F)F)cc2-c2cccs2)cc1 | -20.1% | 0.184 µM [falling, full curve, poor fit] | 4.61 µM [falling, partial curve, poor fit] |
| O=C(NC1CC2CCCC(C1)N2C(=O)Nc1ccccc1F)C1CC1 (centres undefined) | 14.6% |  |  |
| Clc1ccc(-c2cc3ccccc3[nH]2)cc1 | 2.64% |  | 32.6 µM [falling, single point] |
| O=C(COc1ccccc1)Nc1ccc(C(=O)N2CCCC2)cc1 | -0.54% |  | 0.58 µM [rising, single point] |

| SMILES | cell number change | AC50 [1] | AC50 [2] |
| --- | --- | --- | --- |
| CCN(CC(=O)Nc1cc(Cl)ccc1C)C(=O)C1COc2ccccc2O1 (centres undefined) | -23.1% |  | 6.51 µM [falling, single point] |
| CC(c1nnc(SCn2nnc3ccccc3c2=O)n1-c1ccc(Cl)cc1)N(C)C (centres undefined) | 9.07% |  | 5.17 µM [rising, full curve] |
| CCc1ccccc1N1C(=O)C2CC=CCC2C1=O (centres undefined) | 2.38% |  |  |
| O=C(O)C1Cc2ccccc2CN1S(=O)(=O)c1ccc(Cl)cc1 (centres undefined) |  |  | 29.1 µM [rising, single point] |
| CCCCN(C)Cc1cc(=O)oc2ccc3ccccc3c12 | 4.26% |  |  |
| Cc1cc(=O)nc2c3ccccc3n(CC(=O)NCCC3=CCCCC3)n12 | -26.6% |  | 8.2 µM [falling, partial curve] |
| CC(=O)Nc1cc(C(=O)OCc2cccc([N+](=O)[O-])c2)ccc1C | 19.8% |  | 0.00651 µM [rising, full curve, poor fit] |
| O=C(O)CN1C(=O)/C(=C/c2ccc(SCc3ccccc3)o2)SC1=S |  | 0.82 µM [rising, single point] | 0.58 µM [rising, single point] |
| CC(C)Oc1ccc(OCCSc2nc3ccccc3n2CC(=O)O)cc1 | 16.4% |  | 0.58 µM [falling, single point] |
| N#C/C(=C/c1cn(-c2ccccc2)nc1-c1cccc(OCc2ccccc2)c1)C(=O)NCCCn1ccnc1 | 11.7% | 6.51 µM [rising, single point] |  |
| CC1CC(C)CN(c2nc3c(c(=O)n(C)c(=O)n3C)n2CCSc2ncccn2)C1 (centres undefined) | 26.7% |  | 6.51 µM [rising, single point] |
| Cc1ccc(OCc2nc(-c3ccccn3)no2)c(Br)c1 | 0.195% |  | 0.651 µM [rising, partial curve] |
| CN1CCN(S(=O)(=O)c2cccc(C#N)c2)C(c2ccccc2)C1 (centres undefined) | -47.4% | 20.6 µM [falling, single point] |  |
| CCN1C(=O)C(O)(CC(=O)/C=C/C=C/c2ccccc2)c2ccccc21 (centres undefined) | 132% | 4.61 µM [rising, full curve] | 3.66 µM [rising, full curve] |
| Cc1ccc(NS(=O)(=O)c2ccc(C(=O)N3CC(C)CC(C)C3)cc2)cc1 (centres undefined) | 28.1% |  |  |
| Cc1ccc(NC(=O)c2ccco2)c(NC(=O)c2cccs2)c1 |  |  | 0.58 µM [falling, single point] |
| COc1ccccc1C(=O)NC(=O)COc1ccc(Cl)cc1Cl |  |  | 0.517 µM [rising, single point] |
| COc1ccc(S(=O)(=O)N2CCN(C3CCCCCCC3)CC2)cc1 | 5.11% and 101% | 0.651 µM [falling, single point] | 29.1 µM [falling, partial curve] and 580 nM [falling, single point] |
| Cc1cccc(NC(=O)C(C)Sc2nnc(-c3cccnc3)o2)c1 (centres undefined) | -3.13% |  | 0.92 µM [rising, full curve, poor fit] |
